Tested on: focal demyelination in the corpus callosum of adult mice
Experiment: Lysolecithin (LPC) induced focal de/remyelination model in adult mice, oral administration in drinking water
Assay type: in vivo
Settings: drugs daily in 5%-glucose drinking water; among groups; FIG. 4A
Experimental: We weighted and anesthetized 4 months old RjOrl: SWISS mice (Janvier) with isoflurane (induced at 3%, and maintained at 1.2-1.6%). We induced focal demyelinating lesions by injecting 0.5 μl of a solution of 1% lysolecithin (LPC, Sigma in 0.9% NaCl solution) into the corpus callosum. To do so, a glass-capillary connected to a 10 μl Hamilton syringe was fixed and oriented through stereotaxic apparatus (coordinates: 1 mm lateral, 1.3 mm rostral to Bregma, 1.7 mm deep to brain surface). Animals were left to recover for a few hours in a warm chamber. […] Mice was perfused at 2% cold paraformaldehyde (thermos fisher) at 7 DPI.
For in-vivo cryosections (14-μm thick) of lesions, immunohistochemistry was performed after 30 mn drying at RT in a moist chamber. For myelin staining, ethanol treatment (100%) was performed for 10 mn at RT. […]
We analyzed the lesions at 7 days post-lesion (7 dpl), when newly formed OLs have started to remyelinate the lesion in this model. […] We determined the effect of the drugs to promote oligodendrogenesis at the lesion site by combinatory immunodetection of Olig2, CC1 and Olig1, allowing to distinguish OPCs (Olig2^high/CC1^−/Olig1^nuclear-cyto cells) and three stages in OL differentiation: iOL1 (Olig2^high/CC1^high/Olig1^− cells), iOL2 (Olig2^high/CC1^high/Olig1^high-cyto cells), and mOL (Olig2^low/CC1^low/Olig1^low cells). […]

Structure (SMILES)	daily oral consumption of drinking water
CCCCOc1ccc(C(=O)CCN2CCCCC2)cc1.Cl [Sm5, Dyclonine hydrochloride]	did not find any significant changes
Nc1nc(=O)c2c([nH]1)NCC(CNc1ccc(C(=O)N[C@@H](CCC(=O)O)C(=O)O)cc1)N2C=O.[Ca+2] (some centres unmarked) [Sm11, Calcium folinate]	did not find any significant changes
